The source of these data is publication doi:10.1101/2022.02.10.479924.

Protein sequences, listed by entry. Tags and fused reporters are not part of them.
UniProt Q14152: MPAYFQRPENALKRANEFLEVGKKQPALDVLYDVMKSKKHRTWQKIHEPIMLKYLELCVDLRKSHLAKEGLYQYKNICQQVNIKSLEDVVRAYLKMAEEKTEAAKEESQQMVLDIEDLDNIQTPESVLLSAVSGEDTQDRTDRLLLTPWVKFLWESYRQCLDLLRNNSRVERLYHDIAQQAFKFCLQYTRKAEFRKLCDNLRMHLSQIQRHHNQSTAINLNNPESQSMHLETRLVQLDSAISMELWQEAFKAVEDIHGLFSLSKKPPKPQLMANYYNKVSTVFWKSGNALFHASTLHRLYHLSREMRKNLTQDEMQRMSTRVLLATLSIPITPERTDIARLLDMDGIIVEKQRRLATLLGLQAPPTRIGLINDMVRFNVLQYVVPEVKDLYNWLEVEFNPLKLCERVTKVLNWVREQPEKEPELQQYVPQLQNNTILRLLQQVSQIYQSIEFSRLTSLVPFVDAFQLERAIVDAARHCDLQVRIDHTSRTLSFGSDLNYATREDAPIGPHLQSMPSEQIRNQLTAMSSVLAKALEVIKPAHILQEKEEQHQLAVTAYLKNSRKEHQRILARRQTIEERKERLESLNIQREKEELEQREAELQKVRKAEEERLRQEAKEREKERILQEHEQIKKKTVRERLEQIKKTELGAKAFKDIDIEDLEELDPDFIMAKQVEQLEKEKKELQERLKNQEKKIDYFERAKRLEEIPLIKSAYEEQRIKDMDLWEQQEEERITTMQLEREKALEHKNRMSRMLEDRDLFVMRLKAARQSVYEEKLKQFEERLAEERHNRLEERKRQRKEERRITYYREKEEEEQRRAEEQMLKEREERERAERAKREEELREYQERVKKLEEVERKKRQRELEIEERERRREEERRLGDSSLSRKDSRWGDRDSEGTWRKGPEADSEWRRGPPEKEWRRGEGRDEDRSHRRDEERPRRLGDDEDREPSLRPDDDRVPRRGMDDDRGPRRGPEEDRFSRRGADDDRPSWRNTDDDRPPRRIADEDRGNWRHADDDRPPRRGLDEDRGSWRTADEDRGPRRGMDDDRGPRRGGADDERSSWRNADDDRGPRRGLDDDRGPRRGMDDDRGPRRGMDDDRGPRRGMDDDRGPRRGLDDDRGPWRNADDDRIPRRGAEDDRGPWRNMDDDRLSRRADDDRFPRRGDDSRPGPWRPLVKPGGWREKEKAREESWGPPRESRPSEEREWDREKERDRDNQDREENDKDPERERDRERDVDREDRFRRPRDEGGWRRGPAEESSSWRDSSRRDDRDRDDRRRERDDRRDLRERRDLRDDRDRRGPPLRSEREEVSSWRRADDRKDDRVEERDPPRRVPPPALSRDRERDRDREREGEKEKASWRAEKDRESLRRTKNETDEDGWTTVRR
UniProt O75821: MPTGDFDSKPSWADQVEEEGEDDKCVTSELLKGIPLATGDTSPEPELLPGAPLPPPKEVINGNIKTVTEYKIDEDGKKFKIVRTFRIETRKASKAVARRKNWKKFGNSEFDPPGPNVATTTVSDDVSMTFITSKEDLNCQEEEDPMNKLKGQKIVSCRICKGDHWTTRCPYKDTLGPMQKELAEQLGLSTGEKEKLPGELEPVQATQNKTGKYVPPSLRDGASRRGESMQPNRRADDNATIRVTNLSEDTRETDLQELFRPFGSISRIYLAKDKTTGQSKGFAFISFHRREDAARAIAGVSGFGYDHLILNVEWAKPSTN
UniProt Q9Y520: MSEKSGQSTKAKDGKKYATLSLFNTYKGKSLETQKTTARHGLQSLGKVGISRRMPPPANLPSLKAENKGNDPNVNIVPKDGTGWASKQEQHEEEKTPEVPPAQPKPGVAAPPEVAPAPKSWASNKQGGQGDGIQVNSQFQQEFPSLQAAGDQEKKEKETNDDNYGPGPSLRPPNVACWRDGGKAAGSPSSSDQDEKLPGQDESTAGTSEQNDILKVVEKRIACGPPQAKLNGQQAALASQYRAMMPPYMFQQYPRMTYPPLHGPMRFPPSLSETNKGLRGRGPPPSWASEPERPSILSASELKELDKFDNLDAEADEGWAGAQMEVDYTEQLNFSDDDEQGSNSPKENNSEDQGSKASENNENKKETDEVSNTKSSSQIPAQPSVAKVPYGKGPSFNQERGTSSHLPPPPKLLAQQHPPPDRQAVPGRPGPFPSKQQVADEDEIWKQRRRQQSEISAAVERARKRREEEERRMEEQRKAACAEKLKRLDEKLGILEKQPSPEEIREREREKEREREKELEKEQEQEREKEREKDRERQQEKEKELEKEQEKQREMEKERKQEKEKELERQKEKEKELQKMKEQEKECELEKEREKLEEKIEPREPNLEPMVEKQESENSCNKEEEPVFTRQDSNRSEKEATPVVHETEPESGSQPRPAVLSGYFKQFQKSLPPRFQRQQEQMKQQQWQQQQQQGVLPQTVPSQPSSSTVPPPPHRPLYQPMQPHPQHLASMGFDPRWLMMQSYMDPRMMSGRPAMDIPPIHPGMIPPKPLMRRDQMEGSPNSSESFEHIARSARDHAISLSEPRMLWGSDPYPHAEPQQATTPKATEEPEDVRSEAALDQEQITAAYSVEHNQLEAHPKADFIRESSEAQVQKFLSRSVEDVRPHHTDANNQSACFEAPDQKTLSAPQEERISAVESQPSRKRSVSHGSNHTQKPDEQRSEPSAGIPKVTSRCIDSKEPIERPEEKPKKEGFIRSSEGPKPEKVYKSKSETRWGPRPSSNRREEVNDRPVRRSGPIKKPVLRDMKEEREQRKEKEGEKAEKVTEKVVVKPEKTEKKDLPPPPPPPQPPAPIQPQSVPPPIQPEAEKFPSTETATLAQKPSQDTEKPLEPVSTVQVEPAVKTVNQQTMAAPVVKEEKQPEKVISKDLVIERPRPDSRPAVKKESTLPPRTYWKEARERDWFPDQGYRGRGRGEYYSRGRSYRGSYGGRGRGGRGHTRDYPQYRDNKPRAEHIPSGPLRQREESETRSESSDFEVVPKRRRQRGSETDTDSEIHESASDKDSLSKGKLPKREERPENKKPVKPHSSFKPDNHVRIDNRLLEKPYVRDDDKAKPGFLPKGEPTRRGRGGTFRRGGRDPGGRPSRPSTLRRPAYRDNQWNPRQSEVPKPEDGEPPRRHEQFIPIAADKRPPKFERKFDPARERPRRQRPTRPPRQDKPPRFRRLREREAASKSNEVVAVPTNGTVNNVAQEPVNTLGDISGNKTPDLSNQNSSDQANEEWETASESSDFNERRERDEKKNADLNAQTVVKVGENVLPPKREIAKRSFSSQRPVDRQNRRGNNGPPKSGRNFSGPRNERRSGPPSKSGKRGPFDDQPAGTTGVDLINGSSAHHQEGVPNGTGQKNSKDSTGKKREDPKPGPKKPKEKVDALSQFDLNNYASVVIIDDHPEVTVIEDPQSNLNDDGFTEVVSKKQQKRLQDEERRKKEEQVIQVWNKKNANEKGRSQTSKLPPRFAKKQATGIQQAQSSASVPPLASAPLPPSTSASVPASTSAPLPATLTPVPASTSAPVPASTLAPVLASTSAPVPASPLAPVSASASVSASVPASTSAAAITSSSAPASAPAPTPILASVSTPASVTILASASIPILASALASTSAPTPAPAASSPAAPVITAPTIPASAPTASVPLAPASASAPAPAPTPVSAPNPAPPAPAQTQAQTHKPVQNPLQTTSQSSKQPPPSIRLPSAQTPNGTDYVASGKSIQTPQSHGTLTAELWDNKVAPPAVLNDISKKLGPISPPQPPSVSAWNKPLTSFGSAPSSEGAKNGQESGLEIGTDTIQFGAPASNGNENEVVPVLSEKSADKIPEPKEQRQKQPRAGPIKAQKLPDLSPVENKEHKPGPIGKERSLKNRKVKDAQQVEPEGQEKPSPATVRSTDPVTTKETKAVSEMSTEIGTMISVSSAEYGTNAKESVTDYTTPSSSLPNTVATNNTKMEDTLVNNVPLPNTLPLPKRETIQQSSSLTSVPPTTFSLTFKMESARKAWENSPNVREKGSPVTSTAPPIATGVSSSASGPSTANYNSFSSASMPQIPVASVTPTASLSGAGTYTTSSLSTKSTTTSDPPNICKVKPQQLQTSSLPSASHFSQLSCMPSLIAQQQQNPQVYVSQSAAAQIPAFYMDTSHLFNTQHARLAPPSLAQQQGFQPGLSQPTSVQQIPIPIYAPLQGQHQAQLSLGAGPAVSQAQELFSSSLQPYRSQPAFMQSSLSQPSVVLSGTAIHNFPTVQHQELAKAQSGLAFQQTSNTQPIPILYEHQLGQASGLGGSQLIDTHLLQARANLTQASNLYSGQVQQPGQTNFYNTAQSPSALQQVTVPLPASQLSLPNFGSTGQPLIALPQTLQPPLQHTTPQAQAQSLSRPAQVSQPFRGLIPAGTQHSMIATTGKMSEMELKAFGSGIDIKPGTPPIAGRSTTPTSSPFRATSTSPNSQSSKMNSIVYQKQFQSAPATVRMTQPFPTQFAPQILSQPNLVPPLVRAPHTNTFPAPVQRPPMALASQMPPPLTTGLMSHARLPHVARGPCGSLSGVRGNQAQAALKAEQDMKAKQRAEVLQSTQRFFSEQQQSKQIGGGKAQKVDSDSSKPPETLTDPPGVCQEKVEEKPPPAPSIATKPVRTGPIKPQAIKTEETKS
UniProt Q04637: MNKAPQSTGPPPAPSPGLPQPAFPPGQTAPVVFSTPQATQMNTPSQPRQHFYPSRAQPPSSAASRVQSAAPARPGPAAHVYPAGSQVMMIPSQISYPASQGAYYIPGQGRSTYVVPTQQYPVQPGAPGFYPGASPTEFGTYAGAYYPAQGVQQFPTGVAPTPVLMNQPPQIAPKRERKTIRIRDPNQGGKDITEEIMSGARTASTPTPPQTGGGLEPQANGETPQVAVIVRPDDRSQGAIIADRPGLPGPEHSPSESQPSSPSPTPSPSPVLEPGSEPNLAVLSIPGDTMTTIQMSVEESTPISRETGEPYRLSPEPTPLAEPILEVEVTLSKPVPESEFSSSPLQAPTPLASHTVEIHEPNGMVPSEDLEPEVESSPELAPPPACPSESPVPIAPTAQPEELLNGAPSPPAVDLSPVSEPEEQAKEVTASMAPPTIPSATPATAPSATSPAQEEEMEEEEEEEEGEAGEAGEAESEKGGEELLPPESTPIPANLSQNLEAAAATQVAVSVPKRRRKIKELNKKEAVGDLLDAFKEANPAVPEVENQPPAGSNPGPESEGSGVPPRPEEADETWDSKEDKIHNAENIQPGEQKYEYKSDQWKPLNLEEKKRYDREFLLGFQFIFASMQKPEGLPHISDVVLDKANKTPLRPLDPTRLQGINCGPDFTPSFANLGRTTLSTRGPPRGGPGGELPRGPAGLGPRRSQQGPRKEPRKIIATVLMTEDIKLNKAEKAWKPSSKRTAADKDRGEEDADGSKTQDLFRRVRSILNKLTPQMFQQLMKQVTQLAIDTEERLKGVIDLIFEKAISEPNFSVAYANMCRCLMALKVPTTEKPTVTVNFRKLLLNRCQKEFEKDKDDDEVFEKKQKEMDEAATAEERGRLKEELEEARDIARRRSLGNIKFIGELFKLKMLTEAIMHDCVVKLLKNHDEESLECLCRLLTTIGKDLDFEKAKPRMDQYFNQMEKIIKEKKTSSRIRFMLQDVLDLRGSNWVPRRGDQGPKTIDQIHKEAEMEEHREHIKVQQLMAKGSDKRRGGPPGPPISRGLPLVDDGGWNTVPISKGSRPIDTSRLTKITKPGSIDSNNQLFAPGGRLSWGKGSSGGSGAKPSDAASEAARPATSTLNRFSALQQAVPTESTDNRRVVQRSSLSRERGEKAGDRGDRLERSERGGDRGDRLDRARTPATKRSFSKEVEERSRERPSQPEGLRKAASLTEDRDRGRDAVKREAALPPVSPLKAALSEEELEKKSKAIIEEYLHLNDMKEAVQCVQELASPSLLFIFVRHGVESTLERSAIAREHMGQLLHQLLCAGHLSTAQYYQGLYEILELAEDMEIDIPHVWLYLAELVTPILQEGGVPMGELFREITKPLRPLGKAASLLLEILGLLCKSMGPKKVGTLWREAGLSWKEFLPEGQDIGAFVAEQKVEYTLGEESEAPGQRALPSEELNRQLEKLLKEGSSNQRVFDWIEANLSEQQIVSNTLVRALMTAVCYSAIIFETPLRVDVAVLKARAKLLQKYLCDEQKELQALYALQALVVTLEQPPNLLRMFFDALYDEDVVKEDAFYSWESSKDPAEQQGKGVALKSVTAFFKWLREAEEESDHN

The target in test [1] is eIF3A (human (endogenous in HEK293T)) (UniProt Q14152). Description: cross-linking.
Test [2] concerns the target G subunit of the eIF3 complex (eIF3G) (human (endogenous in HEK293T)) (UniProt O75821). Description: cross-linking.

Results are given in words; binding and its absence hold for the method and conditions named. In cells and extracts the contact can be indirect. Some entries that bind do so weakly or less than the wild type.

Regarding “stress granule protein PRC2C (from UniProt Q9Y520 1-2896)”, in test [1], the binding result is “binds”.

Regarding “eIF4G1 (subunit of the eIF4F complex) (from UniProt Q04637 1-1599)”, the binding entry in test [2] was “binds”.
